2 molecules from article PMC5141385, “Small heat shock proteins sequester misfolding proteins in near-native conformation for cellular protection and efficient refolding” (Nature Communications, 2016) can be followed below.

For the assay, the target named is T1, MDH–YFP (UniProt P00346).
T1 sequence: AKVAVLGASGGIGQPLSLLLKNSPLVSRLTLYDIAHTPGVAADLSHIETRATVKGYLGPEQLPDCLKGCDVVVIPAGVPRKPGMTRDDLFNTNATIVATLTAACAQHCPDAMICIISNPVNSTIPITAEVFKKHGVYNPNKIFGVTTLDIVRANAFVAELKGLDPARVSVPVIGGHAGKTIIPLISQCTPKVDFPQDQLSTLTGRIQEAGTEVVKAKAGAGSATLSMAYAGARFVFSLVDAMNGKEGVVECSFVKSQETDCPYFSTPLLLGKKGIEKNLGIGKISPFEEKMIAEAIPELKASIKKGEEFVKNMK
The assay can be described thus: FRET or BRET; MDH–YFP and coumarin-labelled MDH (each 0.25 μM) mixed in preheated buffer C at 47 °C (heat-induced co-aggregation); signal at 527 nm; with or without Hsp26 or Hsp42; both purified.

Results are given in words; binding and its absence hold for the method and conditions named. Some results given as binding are weak or reduced against the parent protein; the word gives no strength. Tags and fused reporters may be left off the sequences shown.

In the case of Hsp42 (from UniProt Q12329 1-375), the binding result is “binds”.

B1: Hsp26 (natural protein, S. cerevisiae, UniProt P15992 1-214, looked up)
chain: MSFNSPFFDFFDNINNEVDAFNRLLGEGGLRGYAPRRQLANTPAKDSTGKEVARPNNYAGALYDPRDETLDDWFDNDLSLFPSGFGFPRSVAVPVDILDHDNNYELKVVVPGVKSKKDIDIEYHQNKNQILVSGEIPSTLNEESKDKVKVKESSSGKFKRVITLPDYPGVDADNIKADYANGVLTLTVPKLKPQKDGKNHVKKIEVSSQESWGN
notes: Hsp26, small heat shock protein of S. cerevisiae; also called sHsp; small heat shock protein Hsp26; source: E. coli (derivative of MC4100), solubilised from the pellet in 8 M urea, purified (Ni-IDA, Sephacryl S-300); not shown: His6-Smt3, N-terminal, cleaved
Consider B1, for which the binding result was “binds”.
